Taken from: PubChem BioAssay AID743121 (NCATS, 2013)
Purpose: 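Genes whose silencing strengthens cell killing by camptothecin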 (primary screen). Cells: MDA-MB-231 cells, a human breast cancer line. Knock-down reagent: single siRNA against human genes, 20 nM siRNA (0.8 pmol per well). Timing: 120 h (drug added 48 h after transfection, read 72 h later). Conditions: camptothecin 20 nM (about EC30) for 72 h; vehicle 0.1% DMSO in parallel plates. Measured: 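CellTiter-Glo ATP signal, scaled to control siRNA as percent viability; sensitisation given as log2 of untreated divided by camptothecin-treated viability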. Reading the numbers: log2 vehicle/camptothecin viability: higher = stronger sensitisation to camptothecin; viability with camptothecin and viability without drug: higher = more viable cells. Active means: 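Each gene scored by redundant siRNA activity (RSA) over its individual siRNA ratios; a gene is called active at p < 0.001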.
The whole screen tested about 26,000 reagents; below is a random part of them. Over the whole deposit, 167 (0.63%) were called active. 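Calls are per gene from RSA p-values that are not deposited; an individual active-marked siRNA can sensitise only weakly.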 Entries without a mark were called inactive. The numbers tell different reagents against one gene apart.

target gene	reagent no.	log2 vehicle/camptothecin viability	viability with camptothecin (% of control)	viability without drug (% of control)
HNMT	1	-0.38	98	75.3
HNMT	2	-0.0177	89.1	88.1
HNMT	3	0.517	41.8	59.9
HNMT	4	-0.26	91.1	76.1
WDR5B	1	-0.137	103	94
WDR5B	2	-0.311	54.4	43.8
WDR5B	3	-0.103	62.9	58.6
WDR5B	4	-0.229	91.1	77.7
BPI	1	-0.308	105	84.5
BPI	2	-0.208	117	102
BPI	3	-0.342	15.8	12.5
BPI	4	0.26	32.3	38.7
TP53	1	-0.302	86.6	70.2
TP53	2	0.213	54.6	63.3
TP53	3	0.0624	93.5	97.7
TP53	4	0.245	40.3	47.7
MEGF8	1	-0.511	34.1	23.9
MEGF8	2	0.0288	71	72.4
MEGF8	3	-0.181	52.8	46.6
MEGF8	4	-0.0572	98.2	94.4
COMP	1	-0.408	103	77.4
COMP	2	-0.146	67.4	60.9
COMP	3	-0.015	77.2	76.4
COMP	4	0.0394	94.5	97.1
TFE3	1	-0.151	102	91.5
TFE3	2	0.109	36.6	39.5
TFE3	3	-0.202	99.3	86.3
TFE3	4	-0.0276	105	103
BEST1	1	-0.427	96.7	71.9
BEST1	2	-0.217	104	89.7
BEST1	3	-0.145	89.5	80.9
BEST1	4	0.505	37	52.6
IBSP	1	-0.0677 (active)	99.7	95.1
IBSP	2	0.846 (active)	11.6	20.9
IBSP	3	1.12 (active)	11.6	25.1
PDK1	1	-0.223	54.9	47.1
PDK1	2	0.14	76.6	84.4
PDK1	3	-0.418	81.5	60.9
PDK1	4	-0.177	89	78.7
MSTN	1	0.194	43	49.1
MSTN	2	-0.0566	82.1	79
MSTN	3	-0.101	86.1	80.3
MSTN	4	-0.369	104	80.3
FGFR1	1	-0.2	88.8	77.3
FGFR1	2	-0.263	65.9	54.9
FGFR1	3	-0.664	80.2	50.6
FGFR1	4	-0.51	111	78.2
IL2	1	-0.453	76.4	55.8
IL2	2	-0.00228	99.8	99.7
IL2	3	-0.259	68.1	56.9
NRXN3	1	-0.24	62.6	53
NRXN3	2	-0.0822	92.5	87.4
NRXN3	3	0.207	50.6	58.4
MPST	1	-0.139	109	98.7
MPST	2	-0.0367	109	106
MPST	3	-0.566	67	45.3
MPST	4	-0.18	95.1	83.9
LMLN	1	0.244	39.5	46.8
LMLN	2	-0.139	84.8	76.9
LMLN	3	0.138	56.3	62
LMLN	4	0.0102	97.6	98.3
SLC12A3	1	0.000907	66.6	66.6
SLC12A3	2	0.0441	61	62.9
SLC12A3	3	0.196	47.2	54
SLC12A3	4	-0.546	120	82.3
UGT1A1	1	0.136	70.2	77.1
UGT1A1	2	0.0832	89.3	94.6
UGT1A1	3	-0.212	51.7	44.6
UGT1A1	4	0.585	14.6	21.9

No new results follow: 10 of the entries above.
target gene	reagent no.	log2 vehicle/camptothecin viability	viability with camptothecin (% of control)	viability without drug (% of control)
TP53	3	0.0624	93.5	97.7
TP53	4	0.245	40.3	47.7
MEGF8	1	-0.511	34.1	23.9
MEGF8	2	0.0288	71	72.4
MEGF8	3	-0.181	52.8	46.6
MEGF8	4	-0.0572	98.2	94.4
COMP	1	-0.408	103	77.4
COMP	2	-0.146	67.4	60.9
COMP	3	-0.015	77.2	76.4
COMP	4	0.0394	94.5	97.1
